Results from paper PMC6030175, “A senataxin-associated exonuclease SAN1 is required for resistance to DNA interstrand cross-links”.
These are yes or no findings as the source states them, for the method shown. For some of these results: Binding seen in cells or lysates may run through a third protein. Some results given as binding are weak or reduced against the parent protein; the word gives no strength. For some of these results: Where a sequence is shown, tags or fusion partners need not be part of it. Each block holds one molecule with its values, some of them ahead of it.

Amino acid sequences for entries named in this document (tags omitted).
UniProt Q7Z333: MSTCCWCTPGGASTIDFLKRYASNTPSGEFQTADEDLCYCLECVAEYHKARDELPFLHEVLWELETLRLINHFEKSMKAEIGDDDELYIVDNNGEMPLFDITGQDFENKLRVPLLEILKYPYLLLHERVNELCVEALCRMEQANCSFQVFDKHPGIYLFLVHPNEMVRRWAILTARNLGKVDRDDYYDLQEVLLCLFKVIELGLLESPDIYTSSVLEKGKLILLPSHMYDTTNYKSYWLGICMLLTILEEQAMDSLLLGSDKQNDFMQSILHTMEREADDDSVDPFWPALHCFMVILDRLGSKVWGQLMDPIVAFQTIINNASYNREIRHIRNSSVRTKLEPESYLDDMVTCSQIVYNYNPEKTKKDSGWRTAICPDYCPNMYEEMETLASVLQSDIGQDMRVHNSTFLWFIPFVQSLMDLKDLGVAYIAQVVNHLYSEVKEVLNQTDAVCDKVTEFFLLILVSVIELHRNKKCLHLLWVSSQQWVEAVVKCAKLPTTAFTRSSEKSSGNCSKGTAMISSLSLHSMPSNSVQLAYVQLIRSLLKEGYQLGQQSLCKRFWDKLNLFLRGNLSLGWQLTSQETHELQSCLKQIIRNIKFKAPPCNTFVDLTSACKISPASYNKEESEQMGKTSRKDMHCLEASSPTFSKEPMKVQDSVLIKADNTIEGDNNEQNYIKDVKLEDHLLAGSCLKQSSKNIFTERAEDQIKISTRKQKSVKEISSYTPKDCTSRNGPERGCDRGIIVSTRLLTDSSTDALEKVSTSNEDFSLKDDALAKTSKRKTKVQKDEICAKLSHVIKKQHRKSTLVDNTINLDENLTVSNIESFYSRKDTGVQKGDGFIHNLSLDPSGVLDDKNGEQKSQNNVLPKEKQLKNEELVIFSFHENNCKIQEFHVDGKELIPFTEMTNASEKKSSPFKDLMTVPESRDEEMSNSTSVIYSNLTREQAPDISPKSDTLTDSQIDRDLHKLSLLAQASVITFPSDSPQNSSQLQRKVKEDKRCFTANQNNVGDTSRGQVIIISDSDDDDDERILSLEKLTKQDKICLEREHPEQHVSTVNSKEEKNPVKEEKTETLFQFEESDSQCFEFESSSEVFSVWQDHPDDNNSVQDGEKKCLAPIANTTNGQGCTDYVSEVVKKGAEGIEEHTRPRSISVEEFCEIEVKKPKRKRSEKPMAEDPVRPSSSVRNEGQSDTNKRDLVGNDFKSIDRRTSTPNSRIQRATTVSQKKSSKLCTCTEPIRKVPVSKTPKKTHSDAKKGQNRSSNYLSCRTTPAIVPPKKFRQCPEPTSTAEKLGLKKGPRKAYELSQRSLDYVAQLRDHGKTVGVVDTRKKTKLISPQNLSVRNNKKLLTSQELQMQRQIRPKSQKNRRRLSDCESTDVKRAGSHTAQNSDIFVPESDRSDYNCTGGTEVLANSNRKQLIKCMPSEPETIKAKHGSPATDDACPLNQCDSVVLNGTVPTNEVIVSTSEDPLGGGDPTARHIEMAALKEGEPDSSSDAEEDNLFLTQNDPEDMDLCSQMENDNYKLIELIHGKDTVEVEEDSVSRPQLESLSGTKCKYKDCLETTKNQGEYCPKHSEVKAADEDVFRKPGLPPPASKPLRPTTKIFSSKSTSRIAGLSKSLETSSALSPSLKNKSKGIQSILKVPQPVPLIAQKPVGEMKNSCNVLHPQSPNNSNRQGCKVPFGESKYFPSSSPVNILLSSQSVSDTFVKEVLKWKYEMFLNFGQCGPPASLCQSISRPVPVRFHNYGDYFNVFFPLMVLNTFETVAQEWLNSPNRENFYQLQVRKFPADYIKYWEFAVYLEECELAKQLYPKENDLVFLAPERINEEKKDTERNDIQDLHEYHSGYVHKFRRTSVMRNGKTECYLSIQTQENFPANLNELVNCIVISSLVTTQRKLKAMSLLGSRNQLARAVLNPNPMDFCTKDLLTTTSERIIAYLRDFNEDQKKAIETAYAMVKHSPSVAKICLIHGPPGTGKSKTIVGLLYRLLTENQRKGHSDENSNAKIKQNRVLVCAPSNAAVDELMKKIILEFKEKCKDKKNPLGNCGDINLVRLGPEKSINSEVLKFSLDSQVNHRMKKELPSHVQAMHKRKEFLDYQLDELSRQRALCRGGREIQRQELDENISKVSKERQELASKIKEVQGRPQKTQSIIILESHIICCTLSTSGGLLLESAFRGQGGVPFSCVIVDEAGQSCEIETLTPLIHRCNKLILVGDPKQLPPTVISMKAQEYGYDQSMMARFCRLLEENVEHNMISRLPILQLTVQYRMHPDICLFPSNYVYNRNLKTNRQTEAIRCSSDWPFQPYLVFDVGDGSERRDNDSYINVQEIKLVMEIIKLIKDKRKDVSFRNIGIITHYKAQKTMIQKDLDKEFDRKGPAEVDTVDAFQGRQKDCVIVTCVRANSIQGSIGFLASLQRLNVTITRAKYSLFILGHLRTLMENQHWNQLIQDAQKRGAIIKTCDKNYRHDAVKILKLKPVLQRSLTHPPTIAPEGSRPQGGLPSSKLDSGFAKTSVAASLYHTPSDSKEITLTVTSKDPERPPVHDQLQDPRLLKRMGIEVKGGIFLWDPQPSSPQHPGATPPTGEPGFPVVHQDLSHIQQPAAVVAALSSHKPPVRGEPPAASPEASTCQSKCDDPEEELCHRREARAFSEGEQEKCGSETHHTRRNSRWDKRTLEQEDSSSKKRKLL

Experiments:
[1] = biological target: T1, SAN1WT-Strep2-FLAG (human SAN1-ssf) (human) (UniProt Q96EK7); experiment: co-IP; soluble nuclear fraction of HeLa SETX-FLAG-GFP cells expressing SAN1-ssf or SAN1ΔRep-ssf, +/- 1 μM MMC; SAN1 captured on Strep-Tactin beads, eluted with desthiobiotin; immunoblot
T1 sequence: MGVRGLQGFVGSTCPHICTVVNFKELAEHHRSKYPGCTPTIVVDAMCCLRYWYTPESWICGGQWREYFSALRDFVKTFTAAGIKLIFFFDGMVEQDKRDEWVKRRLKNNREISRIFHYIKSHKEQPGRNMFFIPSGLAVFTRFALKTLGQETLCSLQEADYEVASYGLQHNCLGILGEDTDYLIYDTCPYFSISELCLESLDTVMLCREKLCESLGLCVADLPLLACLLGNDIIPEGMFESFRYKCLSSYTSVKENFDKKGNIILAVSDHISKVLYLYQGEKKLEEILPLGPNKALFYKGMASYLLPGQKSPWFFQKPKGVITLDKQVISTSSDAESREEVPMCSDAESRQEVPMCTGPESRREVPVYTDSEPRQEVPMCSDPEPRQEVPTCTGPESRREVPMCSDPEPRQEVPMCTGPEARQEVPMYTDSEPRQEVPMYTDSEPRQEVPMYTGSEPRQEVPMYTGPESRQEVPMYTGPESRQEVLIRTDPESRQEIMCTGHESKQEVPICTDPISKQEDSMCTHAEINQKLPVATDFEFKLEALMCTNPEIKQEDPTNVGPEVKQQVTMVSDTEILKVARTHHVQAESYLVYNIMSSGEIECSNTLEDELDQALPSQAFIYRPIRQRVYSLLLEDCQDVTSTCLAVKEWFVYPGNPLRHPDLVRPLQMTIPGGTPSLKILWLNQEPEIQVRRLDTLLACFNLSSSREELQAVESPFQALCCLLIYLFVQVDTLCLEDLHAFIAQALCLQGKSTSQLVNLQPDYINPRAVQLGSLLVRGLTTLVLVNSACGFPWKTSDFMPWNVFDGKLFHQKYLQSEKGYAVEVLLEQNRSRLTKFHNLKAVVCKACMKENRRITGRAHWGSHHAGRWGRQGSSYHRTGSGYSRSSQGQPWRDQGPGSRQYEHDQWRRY

[2] = biological target: T2, endogenous SAN1 (HeLa) (human (endogenous in HeLa)) (UniProt Q96EK7); experiment: co-IP; HeLa soluble nuclear fraction after 1 μM MMC; endogenous SAN1 precipitated with anti-FAM120b antibody and protein A/G Sepharose; immunoblot for SETX
T2 sequence: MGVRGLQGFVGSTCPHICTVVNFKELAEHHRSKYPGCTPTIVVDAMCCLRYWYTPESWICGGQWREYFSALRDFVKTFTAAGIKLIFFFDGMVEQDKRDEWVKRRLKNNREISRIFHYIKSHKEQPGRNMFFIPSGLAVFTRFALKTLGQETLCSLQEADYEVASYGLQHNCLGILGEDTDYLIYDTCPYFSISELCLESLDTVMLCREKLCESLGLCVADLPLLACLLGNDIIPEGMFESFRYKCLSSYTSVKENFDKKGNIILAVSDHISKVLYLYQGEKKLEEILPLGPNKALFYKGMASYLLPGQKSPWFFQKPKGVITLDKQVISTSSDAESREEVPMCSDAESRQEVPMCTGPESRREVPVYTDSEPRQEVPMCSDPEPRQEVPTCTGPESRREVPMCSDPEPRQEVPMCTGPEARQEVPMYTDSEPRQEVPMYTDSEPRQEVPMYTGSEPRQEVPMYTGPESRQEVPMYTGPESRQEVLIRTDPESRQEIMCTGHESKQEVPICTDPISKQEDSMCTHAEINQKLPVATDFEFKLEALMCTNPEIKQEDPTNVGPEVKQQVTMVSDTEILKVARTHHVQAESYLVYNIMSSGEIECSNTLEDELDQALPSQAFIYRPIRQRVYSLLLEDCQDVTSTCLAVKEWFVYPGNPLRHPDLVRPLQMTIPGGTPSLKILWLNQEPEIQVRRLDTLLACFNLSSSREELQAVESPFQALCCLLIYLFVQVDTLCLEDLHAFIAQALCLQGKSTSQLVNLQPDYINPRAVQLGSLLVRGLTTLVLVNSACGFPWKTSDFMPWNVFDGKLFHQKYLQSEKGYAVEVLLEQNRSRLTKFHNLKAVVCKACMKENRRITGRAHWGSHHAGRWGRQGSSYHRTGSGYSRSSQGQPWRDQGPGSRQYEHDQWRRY

[3] = biological target: T3, full length murine SAN1 (yeast two-hybrid bait) (mouse) (UniProt Q6RI63); experiment: two-hybrid; Hybrigenics genome-wide screen; full length murine SAN1 as bait against a mouse adult brain library
T3 sequence: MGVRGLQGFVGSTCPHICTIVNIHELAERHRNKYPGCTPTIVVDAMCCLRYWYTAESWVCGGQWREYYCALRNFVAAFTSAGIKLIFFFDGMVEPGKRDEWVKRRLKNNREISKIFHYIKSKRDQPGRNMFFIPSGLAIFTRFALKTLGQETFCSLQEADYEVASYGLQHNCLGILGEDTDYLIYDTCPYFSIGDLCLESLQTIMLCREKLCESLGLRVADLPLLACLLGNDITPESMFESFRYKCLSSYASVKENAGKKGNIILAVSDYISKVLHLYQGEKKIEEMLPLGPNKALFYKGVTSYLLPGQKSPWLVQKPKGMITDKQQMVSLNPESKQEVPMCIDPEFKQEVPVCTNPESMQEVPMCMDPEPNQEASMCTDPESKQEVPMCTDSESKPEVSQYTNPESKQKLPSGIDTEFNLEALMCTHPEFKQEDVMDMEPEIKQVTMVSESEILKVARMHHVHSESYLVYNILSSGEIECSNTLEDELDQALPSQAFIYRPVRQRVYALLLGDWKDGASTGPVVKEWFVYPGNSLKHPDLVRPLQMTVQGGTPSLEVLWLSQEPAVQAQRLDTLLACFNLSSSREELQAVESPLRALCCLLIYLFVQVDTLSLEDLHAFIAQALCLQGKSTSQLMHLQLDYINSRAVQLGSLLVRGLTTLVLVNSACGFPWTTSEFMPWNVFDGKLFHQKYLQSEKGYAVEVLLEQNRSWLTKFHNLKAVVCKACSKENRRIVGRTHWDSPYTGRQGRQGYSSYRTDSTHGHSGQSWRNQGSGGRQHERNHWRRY

[4] = biological target: T4, SAN1-FLAG (human SAN1 in pRK7 with a C-terminal FLAG tag) (human) (UniProt Q96EK7); experiment: co-IP; 293T cells co-transfected; lysis in 25 mM HEPES pH 7.4, 150 mM NaCl, 0.5% Triton-X 100; anti-FLAG M2 agarose 1 h at 4 °C; immunoblot for FLAG and Myc
T4 sequence: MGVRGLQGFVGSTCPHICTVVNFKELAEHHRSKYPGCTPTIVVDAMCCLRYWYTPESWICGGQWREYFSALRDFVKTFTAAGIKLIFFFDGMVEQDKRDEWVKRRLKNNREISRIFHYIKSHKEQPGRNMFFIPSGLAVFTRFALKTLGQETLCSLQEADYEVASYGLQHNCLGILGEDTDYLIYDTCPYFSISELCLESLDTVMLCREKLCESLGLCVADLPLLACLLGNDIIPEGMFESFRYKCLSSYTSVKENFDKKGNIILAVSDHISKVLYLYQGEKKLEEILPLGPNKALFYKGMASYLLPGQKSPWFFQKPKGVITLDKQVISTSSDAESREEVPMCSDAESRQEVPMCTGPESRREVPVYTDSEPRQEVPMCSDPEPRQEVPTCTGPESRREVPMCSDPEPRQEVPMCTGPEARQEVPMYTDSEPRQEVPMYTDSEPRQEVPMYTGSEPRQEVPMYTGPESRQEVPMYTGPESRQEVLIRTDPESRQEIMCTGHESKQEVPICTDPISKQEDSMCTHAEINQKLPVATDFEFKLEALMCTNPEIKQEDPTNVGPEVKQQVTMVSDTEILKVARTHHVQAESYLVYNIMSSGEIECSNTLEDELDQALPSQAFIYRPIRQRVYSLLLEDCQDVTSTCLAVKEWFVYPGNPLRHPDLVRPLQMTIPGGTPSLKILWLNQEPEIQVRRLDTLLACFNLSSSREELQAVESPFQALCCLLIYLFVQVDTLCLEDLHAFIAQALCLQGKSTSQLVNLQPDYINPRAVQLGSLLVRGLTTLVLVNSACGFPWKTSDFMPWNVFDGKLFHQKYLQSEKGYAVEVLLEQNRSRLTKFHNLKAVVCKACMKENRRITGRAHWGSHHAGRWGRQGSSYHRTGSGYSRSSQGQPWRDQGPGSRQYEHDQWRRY

- binding [1]: binds
Molecule: Senataxin-FLAG-GFP (full length SETX-Flag-GFP) (from UniProt Q7Z333 1-2677)

- binding [2]: binds
Molecule: endogenous Senataxin (HeLa) (from UniProt Q7Z333 1-2677)

- binding [3]: binds
B1: mSETX (876-1103), prey fragment from the mouse adult brain library (domain or fragment, UniProt A2AKX3 876-1103)
chain: DKLQIQEGRADDDLVSFTEVTDTLVKAPCEGHVKMVVESRDKEMRESTALTSNLVEGQVPHDSSKPLVAGRQIDLCNITLISQTTVIQFPSGLSKQNSFQLQKGDKRCLTANQNSAATCRGQVIVISDSDEEEDEDEDERSSSEENIKQSKACIGKDCSEHRSLAVNASVEKQLVKEEERYPVEFEDSESQVFEFESSSEVFSVWQDHKIDSKNSLQGEQKSYVTHVA

- binding [4]: binds
B2: Myc-mSETX fragment (myc-SETX-SID fragment) (domain or fragment, UniProt A2AKX3 876-1103)
chain: DKLQIQEGRADDDLVSFTEVTDTLVKAPCEGHVKMVVESRDKEMRESTALTSNLVEGQVPHDSSKPLVAGRQIDLCNITLISQTTVIQFPSGLSKQNSFQLQKGDKRCLTANQNSAATCRGQVIVISDSDEEEDEDEDERSSSEENIKQSKACIGKDCSEHRSLAVNASVEKQLVKEEERYPVEFEDSESQVFEFESSSEVFSVWQDHKIDSKNSLQGEQKSYVTHVA
